# Some of the results follow.
# By UniProt entry, the sequences of proteins in these tests, tags left out.
# UniProt Q0JBA9, entry or part of it: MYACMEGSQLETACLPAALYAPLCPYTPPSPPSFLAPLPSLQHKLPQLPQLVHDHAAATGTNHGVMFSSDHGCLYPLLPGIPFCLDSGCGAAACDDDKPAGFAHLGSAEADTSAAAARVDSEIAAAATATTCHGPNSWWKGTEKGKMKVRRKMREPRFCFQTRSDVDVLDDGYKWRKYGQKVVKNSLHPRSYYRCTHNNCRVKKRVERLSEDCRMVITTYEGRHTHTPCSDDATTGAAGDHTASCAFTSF
# Molecular target: OsWRKY34 (Oryza sativa, UniProt Q0JBA9 1-250)
# Assay: protein-binding microarray (RPBM); PBS, 2% BSA, 51.3 ng/ul salmon testes DNA, 50 uM zinc acetate, 200 nM TF, 25 C, 1 h; high values mean tight binding
# Details: protein: recombinant; tags: N-terminal polyhistidine and DsRed monomer fusion (pET32a); label: CyDye5-dUTP incorporated in the synthesized complementary strand; 3' TTTTT single-stranded linker to array surface; dsDNA, one strand shown
# Method in brief: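 In PBS with 2% BSA, salmon testes DNA and 50 µM zinc acetate, 200 nM protein was incubated on a custom Agilent array at 25 °C for 1 h and then washed off. The array had been made double-stranded by primer extension with Cy5-dUTP and blocked with 2% BSA. The proteins were transcription factors fused N-terminally to polyhistidine and DsRed, expressed in E. coli BL21-CodonPlus and purified on Ni–NTA. The binding signal is per-feature fluorescence intensity (arbitrary units) from an Axon 4000B scanner.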
row,Sequence,binding signal
1,GGTTGTGTTCTTGTTGGCGAGGAGGAGAGAGGGGTGGGGTCGGAGTCACCTAGTGCAG,14700 fluorescence intensity (a.u.)
2,ATAGAGGCCATGTGCTGCTCCGGCAATTCTTTCTCTACATCGGAGTCACCTAGTGCAG,8770 fluorescence intensity (a.u.)
3,ATGATTTTTCGTGCCCAACTTTAATTGTCCGTATTTTTTGCGGAGTCACCTAGTGCAG,8430 fluorescence intensity (a.u.)
4,TGCCTTGAGATCTTTTGTTTAACCACCACCAAGGCTGGGGCGGAGTCACCTAGTGCAG,8890 fluorescence intensity (a.u.)
5,TATTTGTTTAGGGCAGCATTTCTTCGGCGTGTTCCAACCTCGGAGTCACCTAGTGCAG,8500 fluorescence intensity (a.u.)
6,TCAATTCGATCGCGTGTGCTGTGTGGGACCCGTGGGCGCCCGGAGTCACCTAGTGCAG,8260 fluorescence intensity (a.u.)
7,CCGTCTCCATCCACACCTTCTCTCTTTGGCCTTATCTTCTCGGAGTCACCTAGTGCAG,14900 fluorescence intensity (a.u.)
8,GCGTGTGTGTCTGAGAGAGAGATCAGAGATGAGGGCGGGCCGGAGTCACCTAGTGCAG,8680 fluorescence intensity (a.u.)
9,CGCCGCGTGGTTCTTCGTTTCGTTTGTCTCGCCATCTCTTCGGAGTCACCTAGTGCAG,16200 fluorescence intensity (a.u.)
10,GACATCAGGGTTTATCTTTATTTGGGATGGAGGGTGTAGGCGGAGTCACCTAGTGCAG,9980 fluorescence intensity (a.u.)
11,GTGTCTGCCATCCTGCTATGTTGTGTGCGTGAGAAAATAACGGAGTCACCTAGTGCAG,9000 fluorescence intensity (a.u.)
12,TAGTGGGGAGGCGGTGGTGCTGCGGGGAGGGAGGGAGCACCGGAGTCACCTAGTGCAG,12800 fluorescence intensity (a.u.)
13,CTCCTCCATTGCCAGTTGCTACTCATCCTCATCCTCTCCACGGAGTCACCTAGTGCAG,8290 fluorescence intensity (a.u.)
14,AAGTGTGGTCCTACTGTGCAGCTCCATGTTGTTGAAGAATCGGAGTCACCTAGTGCAG,10200 fluorescence intensity (a.u.)
15,GGAGTTGACCAACATGGCTGCCTTTTAGCTGAACTCTTTTCGGAGTCACCTAGTGCAG,9430 fluorescence intensity (a.u.)
16,TTGAATATGTAATCAGTAATGTGCTTGGTTTAGCGGGGAACGGAGTCACCTAGTGCAG,10800 fluorescence intensity (a.u.)
17,TGTATAGCTAGTAGTAGGATCTTGGTTTATTTTGATTTGCCGGAGTCACCTAGTGCAG,9800 fluorescence intensity (a.u.)
18,AGCTCTCTCTGCTACTCCTCCTAGCTGCATGCTAAGCTAACGGAGTCACCTAGTGCAG,8320 fluorescence intensity (a.u.)
19,TCCCTAACAAAAATTTTGCACCCTATTGCATTGAGCGTTTCGGAGTCACCTAGTGCAG,8410 fluorescence intensity (a.u.)
20,AACATAAACACACATCATTTCCTGTCCCTTGCACGCTACGCGGAGTCACCTAGTGCAG,10000 fluorescence intensity (a.u.)
21,TTTTTTTGTTTTCAATTTGTGTGTGTGTGTGTGTTTCAAGCGGAGTCACCTAGTGCAG,9320 fluorescence intensity (a.u.)

row,Sequence,binding signal
1,AGTTGGCAATAGATCTGCGGCTCACTTGTCTTGTTTCTCTCGGAGTCACCTAGTGCAG,11400 fluorescence intensity (a.u.)
2,ACACGGAAACGGTTACCTCTGTTCGCCTCGTCCTTTTCCTCGGAGTCACCTAGTGCAG,8480 fluorescence intensity (a.u.)
3,CCAAATTCTTCTACGATTCTTATGTTCTTCAGGATACTTGCGGAGTCACCTAGTGCAG,8540 fluorescence intensity (a.u.)
4,CGCTGCCCGTTGCCCGCAAGCGTCACACACTGCTTACACCCGGAGTCACCTAGTGCAG,10900 fluorescence intensity (a.u.)
5,TCTCCTCCCTCGTTTCTCCTGACACGCTCTCATCCTACAACGGAGTCACCTAGTGCAG,8660 fluorescence intensity (a.u.)
6,GGCTTGGCCATCGGTTGGCCAGTGTGTTGGAGCTCTTTTTCGGAGTCACCTAGTGCAG,8640 fluorescence intensity (a.u.)
7,TCTCAGCCGTGGTGAGCCTCTTTCTGATTCATCTCTCTCTCGGAGTCACCTAGTGCAG,9830 fluorescence intensity (a.u.)
8,AATTTCCCTTTAGTATAACCTGCTACAATTAAAATTTTATCGGAGTCACCTAGTGCAG,8550 fluorescence intensity (a.u.)
9,GTTTTTTCAGATATTTTATTTTCCTCTTTTTTTTGTTGTCCGGAGTCACCTAGTGCAG,9310 fluorescence intensity (a.u.)
10,GCGGCCAGTACTCATCACTCTATATACGAGCCTTTGCTACCGGAGTCACCTAGTGCAG,8340 fluorescence intensity (a.u.)
11,GGTGTCCAGCAACTAATTACCACATTTTTACAGTGTCCACCGGAGTCACCTAGTGCAG,9010 fluorescence intensity (a.u.)
12,CGACTCCACCTATCTCGGCAGCATCACATTCGGAGGGCATCGGAGTCACCTAGTGCAG,10900 fluorescence intensity (a.u.)
13,GGGAGCGGCGGAGGAGGAGGGCGCGGCGGCGGTGGGGTGGCGGAGTCACCTAGTGCAG,18100 fluorescence intensity (a.u.)
14,CCTCTTCCCCTGCTTTCTTTGTCTTTCTCAAACAGGTTACCGGAGTCACCTAGTGCAG,8560 fluorescence intensity (a.u.)
15,GTTGTTAATTGTCTCGTGCATGTGATCCATGTATGCGCCACGGAGTCACCTAGTGCAG,9000 fluorescence intensity (a.u.)
16,CTCCGGGGAATATCTATGGGTCTTGTGGGTGTAGGGAGGACGGAGTCACCTAGTGCAG,8770 fluorescence intensity (a.u.)
17,AGAGCGACCTCCTCCATCCATCCCGTCTGCCGCCGGCGCCCGGAGTCACCTAGTGCAG,10100 fluorescence intensity (a.u.)
18,ATTTCTATTTTATGAACGATGGGCTTGGGTTTGTGCTGGTCGGAGTCACCTAGTGCAG,11300 fluorescence intensity (a.u.)
19,TCCAGACTGATGTCATTTTCTGTAGTAGTGTAAGCCTTCACGGAGTCACCTAGTGCAG,8490 fluorescence intensity (a.u.)
20,AGTAGGCCCAACCCAGTTAGACGAATTCCTCAACCTTATCCGGAGTCACCTAGTGCAG,9080 fluorescence intensity (a.u.)
21,GTTCGTCGTCGTCTTCGCCTTCGTCTTCTCCATCCACCACCGGAGTCACCTAGTGCAG,16100 fluorescence intensity (a.u.)

# 2 entries from above, with tabs.
row	Sequence	binding signal
20	AACATAAACACACATCATTTCCTGTCCCTTGCACGCTACGCGGAGTCACCTAGTGCAG	10000 fluorescence intensity (a.u.)
17	AGAGCGACCTCCTCCATCCATCCCGTCTGCCGCCGGCGCCCGGAGTCACCTAGTGCAG	10100 fluorescence intensity (a.u.)
